Taken from: PubChem BioAssay AID1224828 (NIAID, 2016)
Test: 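Knock-downs that increase or decrease LPS-induced p65 nuclear translocation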 (primary screen). Cells: mouse RAW264.7 G9 macrophage reporter cells (GFP-p65, Tnf promoter-mCherry). Reagent: siRNA pool against mouse genes, 100 nM. Timing: 2 days siRNA transfection, then 40 min LPS before fixation. Treatment: LPS (Salmonella minnesota R595) at 10 ng/ml. Measured: 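Imaged p65 nuclear translocation ratio, normalised to the plate median, converted to robust z-scores and averaged across two replicates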. Reading the numbers: p65 translocation robust z-score: higher = more nuclear NF-kappaB p65 after LPS than the plate median; nuclear/cytoplasmic p65 ratio: higher = more nuclear NF-kappaB p65. Rule for the call: 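Active if robust z is above 3.3 (negative regulators) or below -1.56, the Tlr4 control median (positive regulators); activity score 50 or more; control wells not called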. Meaning of the calls: active = hit (p65 shift raised or lowered); inactive = no clear change.
Shown is one part, drawn at random, of about 17,000 reagents tested. 762 of them (4.5%) count as active. 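Active calls include both raised and lowered p65 entry, mostly lowered; wells with fewer than 50 cells lack a z-score.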 Raw values vary from plate to plate and are shown uncorrected.

For Taf8, the entry reads nuclear/cytoplasmic p65 ratio, rep 1 = 1.37; nuclear/cytoplasmic p65 ratio, rep 2 = 0.98; low cell count flag fewer than 50 cells per well; well left out of scoring; inactive. After knock-down of Snrpd1 the results were nuclear/cytoplasmic p65 ratio, rep 1 = 1.17; nuclear/cytoplasmic p65 ratio, rep 2 = 1.02; low cell count flag fewer than 50 cells per well; well left out of scoring; inactive. Against Rtl8a the deposit lists p65 translocation robust z-score -1; nuclear/cytoplasmic p65 ratio, rep 1 = 1.39; nuclear/cytoplasmic p65 ratio, rep 2 = 1.32; low cell count flag enough cells to score; inactive. Slc5a6 showed p65 translocation robust z-score -1.05; nuclear/cytoplasmic p65 ratio, rep 1 = 1.26; nuclear/cytoplasmic p65 ratio, rep 2 = 1.16; low cell count flag enough cells to score; inactive.

2 entries from above in another layout:
target gene	p65 translocation robust z-score	nuclear/cytoplasmic p65 ratio, rep 1	nuclear/cytoplasmic p65 ratio, rep 2	low cell count flag	Outcome
Taf8		1.37	0.98	fewer than 50 cells per well; well left out of scoring	inactive
Snrpd1		1.17	1.02	fewer than 50 cells per well; well left out of scoring	inactive

Next results:
Slc60a2a showed p65 translocation robust z-score -1.87; nuclear/cytoplasmic p65 ratio, rep 1 = 1.38; nuclear/cytoplasmic p65 ratio, rep 2 = 1.34; low cell count flag enough cells to score; active. Pml gave nuclear/cytoplasmic p65 ratio, rep 1 = 1.16; nuclear/cytoplasmic p65 ratio, rep 2 = 1.14; low cell count flag fewer than 50 cells per well; well left out of scoring; inactive. For Calml4, the entry reads p65 translocation robust z-score 0.34; nuclear/cytoplasmic p65 ratio, rep 1 = 1.59; nuclear/cytoplasmic p65 ratio, rep 2 = 1.9; low cell count flag enough cells to score; inactive. Knock-down of Fetub gave: p65 translocation robust z-score -0.23; nuclear/cytoplasmic p65 ratio, rep 1 = 1.56; nuclear/cytoplasmic p65 ratio, rep 2 = 1.43; low cell count flag enough cells to score; inactive. Scn8a scored p65 translocation robust z-score 0.21; nuclear/cytoplasmic p65 ratio, rep 1 = 1.51; nuclear/cytoplasmic p65 ratio, rep 2 = 1.65; low cell count flag enough cells to score; inactive. With knock-down of Serpinb6b, the screen gave p65 translocation robust z-score 0.14; nuclear/cytoplasmic p65 ratio, rep 1 = 1.32; nuclear/cytoplasmic p65 ratio, rep 2 = 1.27; low cell count flag enough cells to score; inactive.

Lrrc46 showed nuclear/cytoplasmic p65 ratio, rep 1 = 0; nuclear/cytoplasmic p65 ratio, rep 2 = 1.56; low cell count flag fewer than 50 cells per well; well left out of scoring; inactive. Silencing of H2-M10.4 resulted in: p65 translocation robust z-score 2.23; nuclear/cytoplasmic p65 ratio, rep 1 = 1.96; nuclear/cytoplasmic p65 ratio, rep 2 = 1.88; low cell count flag enough cells to score; inactive. With knock-down of Lsm5, the screen gave p65 translocation robust z-score 1.82; nuclear/cytoplasmic p65 ratio, rep 1 = 2; nuclear/cytoplasmic p65 ratio, rep 2 = 1.81; low cell count flag enough cells to score; inactive. Bcdin3d showed p65 translocation robust z-score 1.06; nuclear/cytoplasmic p65 ratio, rep 1 = 1.42; nuclear/cytoplasmic p65 ratio, rep 2 = 1.4; low cell count flag enough cells to score; inactive.
